Non-standard residues stand in square brackets, D forms with d. No end group written: not given here. Aib = CC(C)(N)C(=O)O

The data set in a line: general procedure: Fmoc solid-phase peptide synthesis; Wang resin, 0.58 mmol/g (Fmoc-L-Tyr(tBu)-Wang resin); DIC/HOBt (DMAP for resin loading). The note with it: whole synthesis.
As for Y[Aib]EGTFISDYSIALDKIHQEDFVNWLLAQRG, the “final purity (method not given)” value came out at 98.2%.

In the case of Y[Aib]EGTFISDYSIALDKLHQEDFVNWLLAQRG, the “final purity (method not given)” value is listed as 97.5%. The result for Y[Aib]EGTFISDYSIALDKLHQQDFVNWLLAQRG reads 98.2%; that for Y[Aib]EGTFISDYSIALDRIHQQDFVNWLLAQKG, 95.8%.
